Some of the results follow. Repeats are few or missing, and single values can be far off.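 Imaging used 1,536-well plates; nuclei positive for cleaved PARP by antibody were divided by total DNA-stained nuclei to yield the apoptosis fraction. Doses for screening kept most cells viable, and cell lines differ markedly in resting and induced cleaved-PARP levels.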
System: COLO829
Assay: cleaved PARP positive nuclei fraction relative to DMSO control; melanoma cells; higher = more apoptosis
Conditions: library dose: low library concentration; 72 h

First: CC(C)(C)c1cnc(CSc2cnc(NC(=O)C3CCNCC3)s2)o1 + C/C(O)=C(\C#N)C(=O)Nc1cc(Br)ccc1Br [LFM-A13] (first compound 0.01 µM, partner dose 2 µM)
Second: Cc1cc(SCc2sc(-c3ccc(C(F)(F)F)c(F)c3)nc2C)ccc1OCC(=O)O + O=C(Oc1ccc([N+](=O)[O-])cc1)N1CCC(C(O)(c2ccc3c(c2)OCO3)c2ccc3c(c2)OCO3)CC1 [JZL184] (first compound 2 µM, partner dose 1 µM)
The “cleaved PARP positive nuclei fraction” value of the first is lower: 41% for the first, 139% for the second.

First: C#Cc1cccc(Nc2ncnc3cc(OCCOC)c(OCCOC)cc23)c1 [erlotinib] + O=C(Oc1ccc([N+](=O)[O-])cc1)N1CCC(C(O)(c2ccc3c(c2)OCO3)c2ccc3c(c2)OCO3)CC1 [JZL184] (first compound 0.8 µM, partner dose 1 µM)
Second: COc1cc(Nc2ncc(F)c(Nc3ccc4c(n3)NC(=O)C(C)(C)O4)n2)cc(OC)c1OC [Tamatinib] + O=C(Oc1ccc([N+](=O)[O-])cc1)N1CCC(C(O)(c2ccc3c(c2)OCO3)c2ccc3c(c2)OCO3)CC1 [JZL184] (first compound 0.4 µM, partner dose 1 µM)
The “cleaved PARP positive nuclei fraction” value of the first is lower: 92.2% for the first, 151% for the second.

First: CC(C)(C)c1cnc(CSc2cnc(NC(=O)C3CCNCC3)s2)o1 + Cc1cc(SCc2sc(-c3ccc(C(F)(F)F)c(F)c3)nc2C)ccc1OCC(=O)O [GW0742] (first compound 0.01 µM, partner dose 2 µM)
Second: O=C(O)C(=O)Nc1sc2c(c1C(=O)O)CCNC2 + O=C(Oc1ccc([N+](=O)[O-])cc1)N1CCC(C(O)(c2ccc3c(c2)OCO3)c2ccc3c(c2)OCO3)CC1 [JZL184] (first compound 1.66667 µM, partner dose 1 µM)
The “cleaved PARP positive nuclei fraction” value of the first is higher: 115% for the first, 79.8% for the second.

In the case of `NCC(=O)Nc1ccc(-n2nc(C(F)(F)F)cc2-c2ccc3c(ccc4ccccc43)c2)cc1` + O=C(Oc1ccc([N+](=O)[O-])cc1)N1CCC(C(O)(c2ccc3c(c2)OCO3)c2ccc3c(c2)OCO3)CC1 [JZL184] (first compound 1 µM, partner dose 1 µM), the “cleaved PARP positive nuclei fraction” value was 187%.
With `NCC(=O)Nc1ccc(-n2nc(C(F)(F)F)cc2-c2ccc3c(ccc4ccccc43)c2)cc1` + C/C(O)=C(\C#N)C(=O)Nc1cc(Br)ccc1Br [LFM-A13] (first compound 1 µM, partner dose 2 µM) the “cleaved PARP positive nuclei fraction” value was 107%.
